{"sequences": {"note": "Protein sequences, listed by entry. Tags and fused reporters are not part of them. Lines headed by an entry give the natural chain unless they say otherwise; changes in a name come on top.", "UniProt Q504Q3": "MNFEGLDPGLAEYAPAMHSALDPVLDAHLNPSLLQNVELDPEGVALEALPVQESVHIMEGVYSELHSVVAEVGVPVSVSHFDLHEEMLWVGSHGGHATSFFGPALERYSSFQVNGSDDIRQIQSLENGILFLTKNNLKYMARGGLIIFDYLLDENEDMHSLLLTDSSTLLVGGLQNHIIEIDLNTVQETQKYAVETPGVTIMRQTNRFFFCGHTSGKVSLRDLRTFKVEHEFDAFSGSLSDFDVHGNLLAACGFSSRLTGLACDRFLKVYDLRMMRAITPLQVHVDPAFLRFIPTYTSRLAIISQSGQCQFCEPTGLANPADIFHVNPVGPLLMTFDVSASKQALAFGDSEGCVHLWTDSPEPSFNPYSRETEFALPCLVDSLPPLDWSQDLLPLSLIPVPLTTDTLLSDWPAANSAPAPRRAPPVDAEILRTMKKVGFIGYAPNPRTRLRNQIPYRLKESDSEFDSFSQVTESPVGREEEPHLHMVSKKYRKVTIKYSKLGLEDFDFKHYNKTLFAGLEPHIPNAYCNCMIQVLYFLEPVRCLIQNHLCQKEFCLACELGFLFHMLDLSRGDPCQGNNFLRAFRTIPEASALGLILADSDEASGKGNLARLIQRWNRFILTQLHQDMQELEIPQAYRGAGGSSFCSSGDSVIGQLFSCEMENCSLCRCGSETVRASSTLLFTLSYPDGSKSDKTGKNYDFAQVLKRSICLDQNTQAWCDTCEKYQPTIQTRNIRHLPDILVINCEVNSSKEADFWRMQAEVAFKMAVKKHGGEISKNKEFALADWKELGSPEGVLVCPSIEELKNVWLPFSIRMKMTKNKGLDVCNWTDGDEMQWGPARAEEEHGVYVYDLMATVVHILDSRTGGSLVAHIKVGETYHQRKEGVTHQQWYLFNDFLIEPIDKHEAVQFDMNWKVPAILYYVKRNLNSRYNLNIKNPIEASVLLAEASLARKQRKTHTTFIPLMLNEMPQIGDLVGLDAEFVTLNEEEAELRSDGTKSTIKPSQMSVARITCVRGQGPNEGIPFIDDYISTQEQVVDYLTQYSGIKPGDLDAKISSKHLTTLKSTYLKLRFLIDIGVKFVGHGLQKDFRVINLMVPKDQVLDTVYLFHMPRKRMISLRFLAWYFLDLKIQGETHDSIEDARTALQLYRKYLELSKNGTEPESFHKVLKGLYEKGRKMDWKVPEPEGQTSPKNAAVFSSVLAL"}, "source": "paper PMC4617606", "biological_target": "T1, MEX-3C (UniProt Q5U5Q3)", "T1 sequence": "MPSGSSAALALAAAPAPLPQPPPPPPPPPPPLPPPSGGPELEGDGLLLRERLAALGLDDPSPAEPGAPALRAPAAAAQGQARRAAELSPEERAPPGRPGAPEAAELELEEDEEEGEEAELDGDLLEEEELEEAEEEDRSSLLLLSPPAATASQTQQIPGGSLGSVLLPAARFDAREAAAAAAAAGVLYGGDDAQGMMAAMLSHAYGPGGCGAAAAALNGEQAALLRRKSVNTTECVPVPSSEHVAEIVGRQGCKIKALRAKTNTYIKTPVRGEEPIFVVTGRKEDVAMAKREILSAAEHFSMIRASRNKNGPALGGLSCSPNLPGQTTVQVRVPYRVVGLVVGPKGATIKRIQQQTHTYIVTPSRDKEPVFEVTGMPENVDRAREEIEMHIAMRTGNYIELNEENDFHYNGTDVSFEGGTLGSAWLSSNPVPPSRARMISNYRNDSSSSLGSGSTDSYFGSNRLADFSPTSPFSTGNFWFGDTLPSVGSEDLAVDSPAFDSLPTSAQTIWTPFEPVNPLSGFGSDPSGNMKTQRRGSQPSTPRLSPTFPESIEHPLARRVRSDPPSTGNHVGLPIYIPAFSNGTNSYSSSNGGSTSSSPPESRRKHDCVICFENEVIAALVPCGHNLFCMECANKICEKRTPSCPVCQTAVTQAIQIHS", "assay": "co-IP; MEX-3C immunoprecipitated from transfected HEK293T lysate (1% NP-40 in TBS) in the presence of 20 U ml^-1 RNase-I; immunoblot of endogenous deadenylase subunits", "note": "Results are given in words; binding and its absence hold for the method and conditions named. In cells and extracts the contact can be indirect. Some entries that bind do so weakly or less than the wild type."}
{"substance": "PAN2-PAN3 deadenylation complex (from UniProt Q504Q3 1-1202; Q58A45 1-887)", "values": [{"measurement": "binding", "result": "binds"}]}
